# Measurements reported in PubChem BioAssay AID1259254 (NCATS, 2017)
# Purpose: 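Genome-wide screen for genes that prevent DNA re-replication in cancer cells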 (primary screen)
# Cells: human HCT116 colorectal cancer cells
# Knock-down reagent: single siRNA against human genes
# Duration: 3 days
# Detection: 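Nuclei stained with Hoechst and imaged; cell-cycle phase assigned by DNA content; G2 share scaled per plate, non-targeting siRNA 0%, GMNN siRNA 100%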
# Scale: G2 robust z-score and G2 cells, % of GMNN control: higher = more G2 cells, more excess DNA replication; raw share of cells in G2: higher = larger share of cells with G2 DNA content
# Call rule: 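Active siRNAs have a G2 robust z of 5 or more median absolute deviations over the median, which in these data means about 38% or higher of GMNN control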
# Here is one part, drawn at random, of about 59,000 reagents. Of all reagents, about 1,550 (2.6%) got an active call. 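G2 share is only a proxy for re-replication; each gene was hit by three separate siRNAs, and active genes were retested.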 Raw values vary from plate to plate and are shown uncorrected. Reagents against one gene are numbered here. Not stated in the record: the amount of reagent.
gene,reagent no.,G2 robust z-score,"G2 cells, % of GMNN control",raw share of cells in G2 (%),activity call
EPC2,1,-1.19,-5.43,2.37,inactive
EPC2,2,-0.131,2.05,4.83,inactive
EPC2,3,2.03,17.2,9.32,inactive
DBF4P1,1,0.297,5.06,5.56,inactive
DBF4P1,2,1.07,10.5,7.04,inactive
DBF4P1,3,1.1,10.7,6.27,inactive
DCBLD1,1,-0.167,1.79,4.29,inactive
DCBLD1,2,-0.483,-0.431,2.88,inactive
DCBLD1,3,-0.399,0.161,3.32,inactive
BSG,1,0.476,6.31,6.34,inactive
BSG,2,-0.683,-1.84,4.42,inactive
BSG,3,0.462,6.22,6.84,inactive
EPB41L5,1,0.669,7.68,7.37,inactive
EPB41L5,2,1.05,10.3,9.4,inactive
EPB41L5,3,-0.568,-1.03,2.7,inactive
DAZAP2,1,-0.926,-3.55,3.73,inactive
DAZAP2,2,0.654,7.57,7.1,inactive
DAZAP2,3,0.251,4.73,5.13,inactive
MRPS24,1,-1.02,-4.19,2.73,inactive
MRPS24,2,3.15,25.1,9.33,inactive
MRPS24,3,-0.0281,2.77,5.79,inactive
SPSB4,1,0.336,5.33,6.35,inactive
SPSB4,2,0.217,4.49,4.41,inactive
SPSB4,3,0.362,5.51,4.67,inactive
NCMAP,1,1.71,15,11,inactive
NCMAP,2,-0.342,0.562,4.02,inactive
NCMAP,3,-0.469,-0.329,3.39,inactive
TSPAN16,1,-0.328,0.663,4.66,inactive
TSPAN16,2,-0.676,-1.79,3.17,inactive
TSPAN16,3,1.31,12.2,7.57,inactive
UBXN6,1,0.375,5.61,6.77,inactive
UBXN6,2,-0.429,-0.0488,4.28,inactive
UBXN6,3,1.57,14,6.21,inactive
TRIM58,1,-0.112,2.18,7.15,inactive
TRIM58,2,2.62,21.4,11.3,inactive
TRIM58,3,-0.325,0.68,4.21,inactive
IQCC,1,-0.805,-2.7,3.49,inactive
IQCC,2,0.279,4.93,6.18,inactive
IQCC,3,0.974,9.82,6.27,inactive
IL4,1,2.27,18.9,11.1,inactive
IL4,2,-0.536,-0.802,4.75,inactive
IL4,3,1.58,14.1,11,inactive
TDRD1,1,4.3,33.2,18.2,inactive
TDRD1,2,-0.696,-1.93,5.59,inactive
TDRD1,3,-0.621,-1.4,3.94,inactive
RPL7AP66,1,-0.183,1.68,4.35,inactive
RPL7AP66,2,2.09,17.6,11.1,inactive
RPL7AP66,3,2.14,18,12.4,inactive
METRNL,1,1.35,12.5,8.2,inactive
METRNL,2,-0.234,1.32,3.55,inactive
METRNL,3,-0.0101,2.9,4.15,inactive
C1orf94,1,1.68,14.8,10.4,inactive
C1orf94,2,-0.518,-0.675,2.79,inactive
C1orf94,3,0.377,5.62,4.71,inactive
ATP5IF1,1,-0.954,-3.74,2.59,inactive
ATP5IF1,2,-0.95,-3.71,2.22,inactive
ATP5IF1,3,-0.711,-2.04,1.22,inactive
RANBP3,1,1.04,10.3,8.88,inactive
RANBP3,2,-0.714,-2.06,3.6,inactive
RANBP3,3,1.18,11.3,8.75,inactive
CIMIP5,1,0.541,6.77,6.73,inactive
CIMIP5,2,-0.89,-3.3,2.06,inactive
CIMIP5,3,-0.152,1.9,3.27,inactive
LOC727916 (retired record),1,0.332,5.31,5.56,inactive
LOC727916 (retired record),2,0.199,4.37,4.41,inactive
LOC727916 (retired record),3,0.6,7.19,6.32,inactive
PDE4DIPP3,1,-0.564,-1,2.45,inactive
PDE4DIPP3,2,-0.14,1.98,4.31,inactive
PDE4DIPP3,3,1.73,15.2,8.04,inactive
HUS1,1,3.49,27.5,18.2,inactive
HUS1,2,0.24,4.66,5.79,inactive
HUS1,3,-0.273,1.04,3.93,inactive
PI4KAP2,1,3.95,30.8,14.3,inactive
PI4KAP2,2,-0.22,1.42,4.02,inactive
PI4KAP2,3,1.38,12.7,10.1,inactive
NADK,1,-0.849,-3.01,4.1,inactive
NADK,2,0.123,3.83,6.78,inactive
NADK,3,-0.753,-2.33,2.94,inactive
FIS1,1,0.706,7.93,5.76,inactive
FIS1,2,-0.75,-2.31,2.97,inactive
FIS1,3,0.599,7.18,7.27,inactive
A2M,1,-0.815,-2.77,2.96,inactive
A2M,2,-0.514,-0.651,4.5,inactive
A2M,3,1.53,13.8,9.97,inactive
PKD1L3,1,0.21,4.44,6.69,inactive
PKD1L3,2,-0.915,-3.47,3.02,inactive
PKD1L3,3,-1.39,-6.81,2.96,inactive

In a second layout: 9 of the entries above.
MRPS24 #3 | G2 robust z-score: -0.0281; G2 cells, % of GMNN control: 2.77; raw share of cells in G2 (%): 5.79; activity call: inactive
SPSB4 #1 | G2 robust z-score: 0.336; G2 cells, % of GMNN control: 5.33; raw share of cells in G2 (%): 6.35; activity call: inactive
SPSB4 #2 | G2 robust z-score: 0.217; G2 cells, % of GMNN control: 4.49; raw share of cells in G2 (%): 4.41; activity call: inactive
SPSB4 #3 | G2 robust z-score: 0.362; G2 cells, % of GMNN control: 5.51; raw share of cells in G2 (%): 4.67; activity call: inactive
NCMAP #1 | G2 robust z-score: 1.71; G2 cells, % of GMNN control: 15; raw share of cells in G2 (%): 11; activity call: inactive
NCMAP #2 | G2 robust z-score: -0.342; G2 cells, % of GMNN control: 0.562; raw share of cells in G2 (%): 4.02; activity call: inactive
NCMAP #3 | G2 robust z-score: -0.469; G2 cells, % of GMNN control: -0.329; raw share of cells in G2 (%): 3.39; activity call: inactive
TSPAN16 #1 | G2 robust z-score: -0.328; G2 cells, % of GMNN control: 0.663; raw share of cells in G2 (%): 4.66; activity call: inactive
TSPAN16 #2 | G2 robust z-score: -0.676; G2 cells, % of GMNN control: -1.79; raw share of cells in G2 (%): 3.17; activity call: inactive
